Data from patent US20110294803A1, “PHOSPHATIDYLINOSITOL-3-KINASE P110 DELTA-TARGETED DRUGS IN THE TREATMENT OF CNS DISORDERS” (priority 2008, published 2011).
At least one compound was matched to its structure with a doubt left.

Tested on: NRG1-induced [PI(3,4,5)P3] production in LCLs
Test: NRG1-stimulated [PI(3,4,5)P3] production in LCLs, flow cytometry
Format: cell-based
Conditions: human LCLs, NRG1 stimulation

COC[C@H]1OC(=O)c2coc3c2[C@@]1(C)C1=C(C3=O)[C@@H]2CCC(=O)[C@@]2(C)C[C@H]1OC(C)=O [wortmannin] was tested. Which “NRG1-induced [PI(3,4,5)P3] production” value did it give?
Its value is “blocked in a dose-dependent manner”.
